From PubChem BioAssay AID2685 (National Center for Advancing Translational Sciences (NCATS), 2010)
Some of the results follow. The main result of the screen is listed elsewhere. These columns were measured beside it and carry no call. Most of these compounds were active or inconclusive in the main read-out, so they are no random draw. Potencies come from curve fits of mixed quality, noted in brackets.

Assay: qHTS Assay for Lipid Storage Modulators in Drosophila S3 Cells;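 for cell number change: cells counted by Cell Tracker Red CMTPX staining in the red channel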
Settings: BODIPY lipid droplet fluorescence, 18-24 h; for cell number change: measured here: cell count max response, cells fed with added oleic acid
Outline: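 Drosophila S3 cells loaded with oleic acid (400 uM, as added) and compounds at several concentrations; lipid droplets imaged by 488-nm laser-scanning cytometry, 500–530 nm intensity and object ratio to cell channel. Percent activity normalized to 20 uM Triacsin C.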

[1] = measured here: lipid fluorescence (Fed channel) AC50, cells fed with added oleic acid
[2] = measured here: cell number channel AC50, cells fed with added oleic acid

| Structure (SMILES) | cell number change | AC50 [1] | AC50 [2] |
| --- | --- | --- | --- |
| COc1ccc(S(=O)(=O)NNC(=O)C2CC(c3cccnc3)=NO2)cc1 (stereo not given) | -3% |  |  |
| COc1ccccc1NC(=O)c1cc2ccccc2o/c1=N\O | -24% | 2.91 µM [falling, partial curve] |  |
| COC(=O)/C=C/S(=O)(=O)c1ccc(NC(C)=O)cc1 | -58.7% | 9.2 µM [falling, partial curve] | 5.17 µM [falling, full curve] |
| CC(C)(O)CCC(C)(C)O | -39.8% | 5.17 µM [falling, single point] | 3.66 µM [falling, single point] |
| CCN(CC)C(=O)COc1ccc(/C(C)=N/NC(=O)c2ccccc2O)cc1 | 21.8% | 6.51 µM [rising, single point] |  |
| O=C(C1CCCN1S(=O)(=O)c1ccc(Cl)cc1)N1CCOCC1 (stereo not given) | 3.12% | 0.13 µM [falling, full curve, poor fit] |  |
| Cc1ccc2occ(C(c3nnnn3C3CCCC3)N3CCN(C(=O)c4ccco4)CC3)c(=O)c2c1 (stereo not given) | -12.4% | 0.0146 µM [falling, full curve, poor fit] |  |
| COc1cccc(C(=O)n2c(SC)nc3cc4c(cc32)OCCO4)c1 | 177% |  | 29.1 µM [rising, single point] |
| CC1=C(C(=O)N2CCN(c3cc(C)ccc3C)CC2)C2(CCCCC2)OC1=O | 4.57% | 2.06 µM [rising, full curve] |  |
| CCOC(=O)C(NC(=O)c1ccc(OC)cc1)(N1CCOCC1)C(F)(F)F (stereo not given) | -45% | 23.1 µM [falling, partial curve] | 3.66 µM [falling, full curve] |
| CC(C)(C)c1ccc(/C=C2\SC(=O)N(CCNC(=O)c3cccc(S(=O)(=O)N4CCOCC4)c3)C2=O)cc1 | -32.6% | 11.6 µM [falling, partial curve] | 20.6 µM [falling, single point] |
| CCCC[C@]12Cc3cc(OC)c(OC)cc3C(O1)c1c(cc(-c3ccccc3)oc1=O)O2 | 2.27% | 0.211 µM [rising, partial curve, poor fit] |  |
| O=C1CC(N2CCC(O)(c3ccc(Br)cc3)CC2)C(=O)N1c1ccc(Cl)cc1 (stereo not given) |  |  | 0.58 µM [falling, single point] |
| CCC/C(C)=C/c1ccc(CC)cn1 | 11% | 0.00461 µM [falling, full curve, poor fit] |  |
| CC1CCN(C(=O)CSc2nc(N)c3c4c(sc3n2)CN(C)CC4)CC1 | -2.97% |  |  |
| C=CCNc1sc(C(=O)c2ccccc2)c(N)c1C#N | 21.9% |  | 4.11 µM [rising, full curve, poor fit] |
| CCOc1ccc(N2CC(C(=O)Nc3ccccc3C(=O)N3CCOCC3)CC2=O)cc1 (stereo not given) | 22.3% |  |  |
| CCCN(CC(=O)Nc1ccccc1C)C(=O)CCNC(=O)c1ccccc1Cl |  | 0.82 µM [rising, full curve] | 0.517 µM [rising, full curve] |
| COc1cc(OC)cc(C(=O)NCCS(=O)(=O)N2CCN(Cc3ccccc3)CC2)c1 | -18.1% | 3.26 µM [falling, partial curve] | 2.91 µM [falling, partial curve] |

Part of the list above, with tabs:
Structure (SMILES)	cell number change	AC50 [1]	AC50 [2]
C=CCNc1sc(C(=O)c2ccccc2)c(N)c1C#N	21.9%		4.11 µM [rising, full curve, poor fit]
CCOc1ccc(N2CC(C(=O)Nc3ccccc3C(=O)N3CCOCC3)CC2=O)cc1 (stereo not given)	22.3%		

Next entries:

| Structure (SMILES) | cell number change | AC50 [1] | AC50 [2] |
| --- | --- | --- | --- |
| COc1ccc(OC)c(C(=O)CCCC(=O)c2cc(OC)ccc2OC)c1 | -25.8% | 9.2 µM [falling, partial curve] |  |
| COc1ccc(-c2noc(CN(C)C(=O)c3ccc4c(c3)OCO4)n2)cc1 | -6.67% | 29.1 µM [rising, single point] |  |
| COc1cnc(-c2ccccc2)nc1Oc1ccccc1C |  | 25.9 µM [falling, single point] |  |
| Cc1ccc(Cn2ccc(NC(=O)CCSc3nc(-c4ccco4)cc(C(F)(F)F)n3)n2)cc1 | -21.5% | 3.66 µM [rising, partial curve] |  |
| COCCCNC(=O)c1cn(C)c(=O)c2c1c1ccccc1n2C | 4.26% | 0.184 µM [rising, full curve, poor fit] |  |
| COc1c(C)cc(C(=O)C2CCCN(C(=O)c3cc(C)on3)C2)cc1C (stereo not given) | -11.8% | 13 µM [rising, partial curve] |  |
| Cc1nc(N)sc1C(=O)N/N=C/c1ccccc1[N+](=O)[O-] | 78.1% |  | 29.1 µM [rising, single point] |
| CC(C)c1cc(C(=O)NNC(=S)NC2CCCCC2)cs1 | 10.1% | 3.66 µM [rising, single point] | 0.461 µM [rising, full curve, poor fit] |
| COc1cc(C(=O)N/N=C/c2sc(=O)n(-c3ccccc3)c2Cl)cc(OC)c1OC | -10.9% | 1.84 µM [rising, full curve, poor fit] |  |
| CC(C)CC(NS(=O)(=O)OCC(Cl)(Cl)Cl)c1ccccc1 (stereo not given) | -33.8% |  | 32.6 µM [falling, single point] |
| O=C(NCc1ccncc1)C(=O)NCc1ccncc1 | -9.15% | 6.51 µM [falling, single point] |  |
| Cc1cccc(NS(=O)(=O)c2cc(C(=O)N3CCc4ccccc4C3)ccc2Cl)c1C | -16% |  |  |
| O=C(CCc1nc2ccccc2c(=O)[nH]1)NNC(=O)c1ccc(Cl)cc1 | 7.02% | 6.51 µM [rising, single point] |  |
| O=S(=O)(c1ccccc1)c1cnc(-c2ccccc2)nc1N1CCCC1 | 16.1% | 0.651 µM [rising, full curve, poor fit] |  |
| CC1CCCCN1C(=O)COC(=O)c1ccc2ccccc2n1 (stereo not given) | 11.5% | 0.00411 µM [rising, full curve, poor fit] |  |
| Cc1ccc(S(=O)(=O)C(C#N)c2nc3ccccc3nc2N2CCCC2)cc1C (stereo not given) |  | 13 µM [rising, partial curve] | 0.651 µM [rising, single point] |
| CCCCOC(=O)c1ccc(NC(=S)NC(=O)c2ccco2)cc1 | -8.35% | 29.1 µM [falling, single point] |  |
| Cn1c(N)c(C(=O)COC(=O)c2ccccn2)c(=O)n(C)c1=O | 4.53% | 0.58 µM [rising, single point] | 0.517 µM [rising, single point] |
